According to the supplement of paper PMC6078165:
Values are relative to the signal before dosing, not to a vehicle control; the signal also falls without drug.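 Fibroblast labels denote human fibroblasts, mainly primary ones from uterus (C12385, HUF), lung (H6013), bone (Hs27A), adrenal (HADF) and skin (WS1), plus mammary HMF and breast cancer-associated Hs343T. Cancer cells are basal-like or mesenchymal-like triple-negative breast cancer lines. A hit is a response shift exceeding 3x replicate standard deviation. The tissue of the other fibroblasts is not given here.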

Tested on: MDAMB436
Experiment: relative JC-1 red fluorescence (viability) vs pre-drug, coculture with fibroblast (fraction); higher = more viable cancer cells
Protocol: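 JC-1 labelled TNBC cells cocultured 1:1 (1,500 cells each) with CellTrace Violet stained primary or stromal fibroblasts in 384-well plates in FluoroBrite medium, treated with one of 42 anticancer drugs at 0.1, 1, 10 or 100 uM. JC-1 red fluorescence (mitochondrial integrity in cancer cells only) was read by plate reader every 8 h for 72 h. Values are normalised to each well's pre-drug value. The stock of one drug was tenfold lower, so its dose labels may be too high.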

CCc1c2c(nc3ccc(OC(=O)N4CCC(N5CCCCC5)CC4)cc13)-c1cc3c(c(=O)n1C2)COC(=O)[C@]3(O)CC [Irinotecan]
relative JC-1 red fluorescence
Conditions	8 h	16 h	24 h	32 h	40 h	48 h	56 h	64 h	72 h
0.1 µM, coculture fibroblast: C12385	0.779	0.683	0.694	0.62	0.589	0.57	0.559	0.547	0.552
0.1 µM, coculture fibroblast: H6013	0.8092	0.801	0.787	0.776	0.759	0.775	0.73	0.709	0.653
0.1 µM, coculture fibroblast: H6019	0.7221	0.676	0.638	0.558	0.527	0.507	0.472	0.442	0.416
0.1 µM, coculture fibroblast: H6076	0.765	0.695	0.687	0.636	0.618	0.589	0.592	0.581	0.572
0.1 µM, coculture fibroblast: H6231	0.78629	0.673	0.6621	0.573	0.537	0.499	0.488	0.4595	0.4412
0.1 µM, coculture fibroblast: HADF	0.796	0.695	0.657	0.613	0.581	0.584	0.525	0.515	0.478
0.1 µM, coculture fibroblast: HCFa	0.743	0.684	0.643	0.599	0.57	0.576	0.514	0.502	0.4462
0.1 µM, coculture fibroblast: HCPF	0.727	0.675	0.6723	0.612	0.597	0.564	0.552	0.53	0.514
0.1 µM, coculture fibroblast: HHSteC	0.795	0.772	0.735	0.699	0.684	0.685	0.619	0.593	0.54
0.1 µM, coculture fibroblast: HMF	0.727	0.668	0.634	0.579	0.574	0.544	0.543	0.516	0.508
0.1 µM, coculture fibroblast: HPFa	0.843	0.763	0.718	0.685	0.652	0.66	0.577	0.541	0.47
0.1 µM, coculture fibroblast: HUF	0.827	0.725	0.69	0.613	0.557	0.535	0.512	0.491	0.484
0.1 µM, coculture fibroblast: Hs5	0.754	0.708	0.7	0.6392	0.6216	0.578	0.584	0.543	0.533
0.1 µM, coculture fibroblast: Hs27A	0.785	0.694	0.648	0.615	0.579	0.628	0.536	0.513	0.438
0.1 µM, coculture fibroblast: Hs343T	0.735	0.659	0.6197	0.569	0.538	0.5	0.486	0.475	0.469
0.1 µM, coculture fibroblast: WS1	0.7547	0.686	0.661	0.576	0.538	0.507	0.483	0.448	0.438
1 µM, coculture fibroblast: C12385	0.754	0.711	0.716	0.644	0.61	0.5974	0.5908	0.5871	0.5919
1 µM, coculture fibroblast: H6013	0.832	0.816	0.808	0.806	0.801	0.836	0.789	0.778	0.728
1 µM, coculture fibroblast: H6019	0.725	0.712	0.714	0.65	0.621	0.607	0.576	0.547	0.523
1 µM, coculture fibroblast: H6076	0.754	0.689	0.679	0.628	0.608	0.586	0.607	0.599	0.604
1 µM, coculture fibroblast: H6231	0.73	0.6464	0.691	0.597	0.577	0.548	0.544	0.523	0.507
1 µM, coculture fibroblast: HADF	0.795	0.8	0.782	0.753	0.749	0.796	0.731	0.737	0.696
1 µM, coculture fibroblast: HCFa	0.797	0.772	0.723	0.676	0.656	0.673	0.603	0.585	0.529
1 µM, coculture fibroblast: HCPF	0.796	0.772	0.777	0.701	0.676	0.634	0.615	0.596	0.571
1 µM, coculture fibroblast: HHSteC	0.817	0.802	0.78	0.734	0.733	0.742	0.688	0.666	0.619
1 µM, coculture fibroblast: HMF	0.765	0.706	0.693	0.634	0.603	0.563	0.553	0.5311	0.518
1 µM, coculture fibroblast: HPFa	0.894	0.825	0.782	0.72	0.703	0.705	0.624	0.589	0.512
1 µM, coculture fibroblast: HUF	0.82	0.745	0.726	0.647	0.595	0.564	0.538	0.525	0.527
1 µM, coculture fibroblast: Hs5	0.766	0.727	0.734	0.69	0.678	0.642	0.655	0.635	0.623
1 µM, coculture fibroblast: Hs27A	0.823	0.762	0.75586	0.724	0.707	0.784	0.667	0.653	0.577
1 µM, coculture fibroblast: Hs343T	0.7369	0.6981	0.685	0.639	0.617	0.586	0.579	0.563	0.567
1 µM, coculture fibroblast: WS1	0.745	0.715	0.717	0.646	0.608	0.5934	0.583	0.564	0.56
10 µM, coculture fibroblast: C12385	0.826	0.744	0.767	0.696	0.662	0.639	0.62	0.599	0.597
10 µM, coculture fibroblast: H6013	0.818	0.7846	0.7658	0.7654	0.756	0.7738	0.747	0.736	0.703
10 µM, coculture fibroblast: H6019	0.805	0.797	0.816	0.759	0.748	0.732	0.717	0.703	0.696
10 µM, coculture fibroblast: H6076	0.768	0.719	0.695	0.641	0.616	0.592	0.576	0.555	0.5488
10 µM, coculture fibroblast: H6231	0.805	0.727	0.689	0.617	0.584	0.549	0.538	0.506	0.494
10 µM, coculture fibroblast: HADF	0.8441	0.786	0.764	0.718	0.705	0.706	0.651	0.633	0.591
10 µM, coculture fibroblast: HCFa	0.812	0.7674	0.729	0.697	0.6669	0.6709	0.6097	0.60188	0.5546
10 µM, coculture fibroblast: HCPF	0.798	0.691	0.666	0.599	0.571	0.52	0.493	0.468	0.455
10 µM, coculture fibroblast: HHSteC	0.831	0.8264	0.7912	0.76	0.755	0.76	0.709	0.686	0.637
10 µM, coculture fibroblast: HMF	0.702	0.6345	0.6019	0.55	0.535	0.497	0.493	0.478	0.468
10 µM, coculture fibroblast: HPFa	0.9378	0.869	0.867	0.839	0.841	0.844	0.79	0.772	0.719
10 µM, coculture fibroblast: HUF	0.873	0.8003	0.7856	0.7186	0.6716	0.6368	0.609	0.594	0.593
10 µM, coculture fibroblast: Hs5	0.752	0.666	0.635	0.577	0.558	0.52	0.523	0.497	0.494
10 µM, coculture fibroblast: Hs27A	0.898	0.84	0.808	0.795	0.78	0.837	0.767	0.774	0.716
10 µM, coculture fibroblast: Hs343T	0.7107	0.682	0.65	0.606	0.579	0.541	0.525	0.507	0.499
10 µM, coculture fibroblast: WS1	0.832	0.755	0.763	0.702	0.672	0.644	0.625	0.6	0.587
100 µM, coculture fibroblast: C12385	0.8546	0.855	0.8688	0.8226	0.7899	0.78	0.767	0.7532	0.747
100 µM, coculture fibroblast: H6013	0.958	0.846	0.848	0.915	0.872	0.787	0.756	0.732	0.847
100 µM, coculture fibroblast: H6019	0.864	0.857	0.882	0.836	0.83	0.834	0.818	0.819	0.82
100 µM, coculture fibroblast: H6076	0.821	0.803	0.823	0.799	0.789	0.764	0.782	0.786	0.785
100 µM, coculture fibroblast: H6231	0.785	0.798	0.852	0.783	0.755	0.716	0.722	0.709	0.683
100 µM, coculture fibroblast: HADF	0.92	0.939	0.946	0.924	0.943	0.823	0.928	0.927	0.894
100 µM, coculture fibroblast: HCFa	0.9469	0.956	0.957	0.943	0.958	0.9813	0.95	0.972	0.953
100 µM, coculture fibroblast: HCPF	0.787	0.776	0.805	0.749	0.721	0.687	0.68	0.672	0.662
100 µM, coculture fibroblast: HHSteC	0.96	0.933	0.927	0.856	0.862	0.94	0.93418	0.814	0.803
100 µM, coculture fibroblast: HMF	0.844	0.822	0.846	0.8	0.774	0.745	0.743	0.723	0.704
100 µM, coculture fibroblast: HPFa	0.893	0.923	0.877	0.872	0.897	0.865	0.822	0.873	0.902
100 µM, coculture fibroblast: HUF	0.914	0.886	0.896	0.836	0.786	0.761	0.74	0.736	0.733
100 µM, coculture fibroblast: Hs5	0.768	0.753	0.79	0.755	0.783	0.749	0.7971	0.77934	0.786
100 µM, coculture fibroblast: Hs27A	0.832	0.95	0.878	0.778	0.766	0.861	0.9241	0.785	0.912
100 µM, coculture fibroblast: Hs343T	0.879	0.83	0.911	0.857	0.811	0.76	0.735	0.721	0.7035
100 µM, coculture fibroblast: WS1	0.8486	0.83386	0.8372	0.7879	0.77	0.757	0.743	0.7249	0.7205
